# Results reported in PubChem BioAssay (NCATS).
# Chains of the proteins cited; added tags and fusions are not shown. Lines headed by an entry give the natural chain unless they say otherwise; changes in a name come on top.
# UniProt P50135: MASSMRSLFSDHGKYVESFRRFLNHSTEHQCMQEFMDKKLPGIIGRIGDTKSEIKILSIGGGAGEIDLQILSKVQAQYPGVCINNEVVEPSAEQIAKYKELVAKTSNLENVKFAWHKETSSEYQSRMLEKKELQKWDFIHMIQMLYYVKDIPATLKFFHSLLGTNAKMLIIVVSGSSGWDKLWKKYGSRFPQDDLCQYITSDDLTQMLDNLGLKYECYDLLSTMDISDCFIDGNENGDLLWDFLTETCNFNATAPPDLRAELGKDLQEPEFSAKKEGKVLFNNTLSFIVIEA
# UniProt P40261: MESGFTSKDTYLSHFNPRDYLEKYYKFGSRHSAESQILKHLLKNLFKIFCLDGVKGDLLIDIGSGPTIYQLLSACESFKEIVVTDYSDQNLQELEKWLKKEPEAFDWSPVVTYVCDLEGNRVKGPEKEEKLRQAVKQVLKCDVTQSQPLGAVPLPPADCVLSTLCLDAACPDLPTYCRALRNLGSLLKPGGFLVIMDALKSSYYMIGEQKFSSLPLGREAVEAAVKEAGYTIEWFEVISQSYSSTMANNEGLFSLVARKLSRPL
# UniProt P11086: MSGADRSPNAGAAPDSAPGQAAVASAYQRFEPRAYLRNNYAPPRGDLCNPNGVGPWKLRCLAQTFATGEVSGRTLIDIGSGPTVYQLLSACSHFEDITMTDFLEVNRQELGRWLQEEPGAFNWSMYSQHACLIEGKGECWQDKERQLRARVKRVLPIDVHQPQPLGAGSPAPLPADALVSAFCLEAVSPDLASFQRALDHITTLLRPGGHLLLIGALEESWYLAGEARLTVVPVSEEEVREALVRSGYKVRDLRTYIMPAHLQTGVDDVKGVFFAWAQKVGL
# The other results are listed elsewhere or left out. The main result of the screen is listed elsewhere. These columns were measured beside it and carry no call. For part of these data: Compounds called inactive in the main read-out are mostly missing here. Potencies come from curve fits of mixed quality, noted in brackets.
# Assays:
# [1] = A High-Content qHTS Against Drug Library for the Identification of Small Molecules that Inhibit DYT1 Early Onset Primary Dystonia-Associated Cell Pathology (AID 1645839); settings: HEK293 Flp-In EGFP-delE TorsinA, punctate imaging, 48 h; measured here: cell count cytotoxicity
# Method in brief: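 High-content imaging quantified EGFP-TorsinA mislocalization in HEK293-derived cells inducibly expressing DYT1 mutant torsinA, after 48 h exposure to compound given together with tetracycline induction. Cell count served as a toxicity channel alongside %pathology.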
# [2] = molecular target: Histamine N-methyltransferase (Homo sapiens) (UniProt P50135); test: Confirmatory Screen for Target Class Profiling of Small Molecule Inhibitors of Methyltransferases (AID 1745852); settings: MTase-Glo luminescence, SAH detection, recombinant enzyme; measured here: HNMT inhibition potency
# [3] = molecular target: Nicotinamide N-methyltransferase (Homo sapiens) (UniProt P40261); test: as above; settings: MTase-Glo luminescence, SAH detection, recombinant enzyme; measured here: NNMT inhibition potency
# [4] = molecular target: Phenylethanolamine N-methyltransferase (Homo sapiens) (UniProt P11086); test: as above; settings: MTase-Glo luminescence, SAH detection, recombinant enzyme; measured here: PNMT inhibition potency
# [5] = qHTS drug screen for cell cycle checkpoint inhibitors in PARPi-resistant BRCA-mutant ovarian cancer cell lines. (AID 1963452); settings: PEO1/OlaR viability, CellTiter-Glo luminescence, 96 h
# Method in brief: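 PEO1, PEO4 and PEO1/OlaR ovarian cancer cells, 600 per well, exposed 96 h at 37C to a dilution series. Viability read by CellTiter-Glo luminescence, normalized to DMSO and empty wells; activity summarized as Z-AUC.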
# [6] = qHTS for identification of novel therapeutic agents for treatment of microphthalmiaassociated transcription factor (MiT) renal cell carcinoma (RCC) (AID 1963991); settings: CellTiter-Glo, 48 h; for z-score: stronger effect = lower value
# Method in brief: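 Viability of three TFE3-fusion renal carcinoma lines measured by CellTiter-Glo after 48 h treatment with each of 1912 compounds at 11 concentrations. Responses scaled between DMSO (100%) and empty wells (0%) before curve fitting.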
# [7] = qHTS Assay for Modulators of Human Peripheral Myelin Protein 22 (PMP22) Expression/Activity (AID 1967); settings: Cell-based PMP22 reporter, dual-color luciferase ratio
# Method in brief: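 Mouse MSC80 Schwann cells carrying Pmp22 promoter–green click beetle luciferase plus EF-alpha–red luciferase control, dosed 24 h at 37 °C. Dual-filter luminescence, overlap-corrected; %Activity from green/red ratio normalised to untreated cells, concentration-response curves fitted.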
# [8] = qHTS Validation Assay to Find Inhibitors of Chronic Active B-Cell Receptor Signaling (AID 485345); settings: ABC-DLBCL cells, chronic BCR signaling reporter
# Method in brief: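 Read-out: ratio of filter-corrected green (IkappaBalpha fusion) to red (native) luciferase signal in doxycycline-induced TMD8 cells after 4 h at 37C. Titration spanned 46 uM–3 nM; Data were normalised to basal cells and 10 uM MG-132 wells.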
# [9] = NCATS anti-infectives library activity on the primary C. elegans qHTS viability assay (AID 1745855); settings: C. elegans worm area imaging, day 7; measured here: worm number, day 3
# Method in brief: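 Titration-based screen in worms: eggs hatched overnight in M9, L1 larvae fed TOP10 capsules in S medium with compound, incubated 21 °C for 7 days; fluorescent objects gated by size and intensity at days 0, 3 and 7.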
# [10] = measured here: PEO1 parental viability
# [11] = TFE3-RCC UOK109 viability, measured here: UOK109 Z-AUC
# [12] = TFE3-RCC viability, measured here: UOK124 Z-AUC
# [13] = TFE3-RCC viability, measured here: UOK124 cell viability
# [14] = TFE3-RCC viability, measured here: UOK145 Z-AUC
# [15] = TFE3-RCC viability, measured here: UOK145 cell viability
smiles,measurement,setting,value
COc1ccc2cc1Oc1ccc(cc1)C[C@H]1c3c(cc4c(c3Oc3cc5c(cc3OC)CCN(C)[C@@H]5C2)OCO4)CCN1C,AC50,[1],"0.891 µM [falling, full curve]"
O=C(O)CNC(=O)CNC(=O)CNC(=O)CSC(=O)c1ccccc1,AC50,[1],"31.6 µM [rising, single point]"
CCO[C@@H]1O[C@H](C(COCc2ccccc2)OCc2ccccc2)[C@H](OCc2ccccc2)[C@H]1O (stereo not given in full),AC50,[1],"35.5 µM [falling, single point]"
CO[C@@]1(NC(=O)CSCC#N)C(=O)N2C(C(=O)O)=C(CSc3nnnn3C)CS[C@@H]21,AC50,[1],"35.5 µM [rising, single point]"
NC(=O)NC1NC(=O)NC1=O (stereo not given),AC50,[1],"35.5 µM [rising, single point]"
COc1cc(N)c(Cl)cc1C(=O)NC1CCN(CCCOc2ccc(F)cc2)CC1OC (stereo not given),AC50,[1],"7.08 µM [falling, partial curve]"
O=C(Nc1ccc(Cl)cc1)Nc1ccc(Cl)c(C(F)(F)F)c1,AC50,[1],"12.6 µM [falling, partial curve]"
Cc1c(C)c2c(c(C)c1OC(=O)CCC(=O)OCCO)CC[C@@](C)(CCC[C@H](C)CCC[C@H](C)CCCC(C)C)O2,AC50,[1],"6.31 µM [falling, partial curve, poor fit]"
C[C@@H](O[C@H]1OCCN(Cc2n[nH]c(=O)[nH]2)[C@H]1c1ccc(F)cc1)c1cc(C(F)(F)F)cc(C(F)(F)F)c1,AC50,[1],"35.5 µM [falling, single point]"
Cc1cc(C(C#N)c2ccc(Cl)cc2)c(Cl)cc1NC(=O)c1cc(I)cc(I)c1O (stereo not given),AC50,[1],"5.01 µM [falling, full curve, poor fit]"
same,IC50,[2],"42.9 µM [falling, single point]"
same,IC50,[3],"24.1 µM [falling, partial curve]"
same,IC50,[4],"30.4 µM [falling, partial curve]"
Cc1ccc(Nc2nccc(N(C)c3ccc4c(C)n(C)nc4c3)n2)cc1S(N)(=O)=O,AC50,[1],"2.24 µM [rising, partial curve, poor fit]"
same,IC50,[2],"13.6 µM [falling, partial curve]"
same,AC50,[5]; [10],"1.95 µM [falling, partial curve]"
same,z-score,[6]; [11],0.758
same,z-score,[6]; [12],0.321
same,AC50,[6]; [13],"16.6 µM [falling, partial curve]"
same,z-score,[6]; [14],0.561
same,AC50,[6]; [15],"23.5 µM [falling, single point]"
CCCCCCCCCCCCCCNCCO,AC50,[1],"35.5 µM [falling, single point]"
NC1(c2ccc(-c3nc4ccn5c(=O)[nH]nc5c4cc3-c3ccccc3)cc2)CCC1,AC50,[1],"12.6 µM [falling, single point]"
same,IC50,[2],"27.1 µM [falling, single point]"
same,AC50,[5]; [10],"19.5 µM [falling, partial curve]"
same,AC50,[5]; measured here: PEO4 viability,"17.4 µM [falling, partial curve]"
same,z-score,[6]; [11],0.288
same,z-score,[6]; [12],0.987
same,AC50,[6]; [13],"23.5 µM [falling, partial curve]"
same,z-score,[6]; [14],0.147
same,AC50,[6]; [15],"16.6 µM [falling, partial curve]"
NC(=O)c1ccc([N+](=O)[O-])cc1Cl,AC50,[1],"3.55 µM [rising, single point]"
CN(C)CCOC1=Cc2ccccc2Sc2ccc(Cl)cc21,AC50,[1],"31.6 µM [falling, single point]"
CCC(CC)(CC(=O)Nc1cccc(/C=C/c2nc(C3CCC3)cs2)c1)C(=O)O,AC50,[1],"35.5 µM [falling, single point]"
COc1cc(C=C2CCC/C(=C\c3ccc(O)c(OC)c3)C2=O)ccc1O,AC50,[1],"1.78 µM [falling, partial curve, poor fit]"
CC(=O)c1cc2ccccc2s1,AC50,[1],"35.5 µM [rising, single point]"
CN1CCCN(C(c2ccccc2)c2ccc(Cl)cc2)CC1 (stereo not given),AC50,[1],"10 µM [falling, partial curve, poor fit]"
NC(=O)NS(=O)(=O)c1ccc(Cl)cc1,AC50,[1],"35.5 µM [rising, single point]"
O=c1[nH]cnc2c1ncn2[C@@H]1O[C@H](CO)[C@@H](O)[C@H]1O,AC50,[1],"35.5 µM [falling, single point]"
CC(=O)c1ccc2c(c1)N(CCCN(C)C)c1ccccc1S2,AC50,[1],"35.5 µM [falling, partial curve, poor fit]"
CCCCCCCCCCCCCCC[C@H](O)[C@@H](N)CO,AC50,[1],"6.31 µM [falling, partial curve, poor fit]"
CCCCc1oc2ccc(NS(C)(=O)=O)cc2c1C(=O)c1ccc(OCCCN(CCCC)CCCC)cc1,AC50,[1],"1.41 µM [falling, full curve, poor fit]"
same,AC50,[5]; [10],"12.3 µM [falling, partial curve]"
same,AC50,[5]; measured here: PEO4 viability,"8.71 µM [falling, partial curve]"
same,z-score,[6]; [11],0.175
same,z-score,[6]; [12],-0.344
same,AC50,[6]; [13],"11.8 µM [falling, partial curve]"
same,z-score,[6]; [14],1.59
same,AC50,[6]; [15],"33.2 µM [falling, single point]"
CN(C)CCCN1c2ccccc2Sc2ccccc21,AC50,"[7]; measured here: green reporter channel AC50, mouse Pmp22 promoter in mouse Schwann cells","75.7 µM [falling, partial curve]"
same,AC50,"[7]; measured here: red reporter channel AC50, EF-alpha promoter control reporter in MSC80 mouse Schwann cells","84.9 µM [falling, partial curve]"
same,AC50,[8]; measured here: CBG/CBR ratio read-out,"20.6 µM [falling, single point]"
same,AC50,[8]; measured here: CBR control luciferase (viability counter),"25.9 µM [falling, partial curve]"
same,AC50,[1],"3.16 µM [falling, partial curve]"
same,AC50,[9],"0.728 µM [falling, full curve, poor fit]"
CC(C)OC(=O)C(C(=O)OC(C)C)=C1SC=CS1,AC50,[1],"35.5 µM [rising, single point]"
same,z-score,[6]; [11],0.86
same,z-score,[6]; [12],0.366
same,AC50,[6]; [13],"20.9 µM [falling, partial curve, poor fit]"
same,z-score,[6]; [14],0.481

# 18 entries from above, tab-delimited:
smiles	measurement	setting	value
CCO[C@@H]1O[C@H](C(COCc2ccccc2)OCc2ccccc2)[C@H](OCc2ccccc2)[C@H]1O (stereo not given in full)	AC50	[1]	35.5 µM [falling, single point]
Cc1c(C)c2c(c(C)c1OC(=O)CCC(=O)OCCO)CC[C@@](C)(CCC[C@H](C)CCC[C@H](C)CCCC(C)C)O2	AC50	[1]	6.31 µM [falling, partial curve, poor fit]
Cc1cc(C(C#N)c2ccc(Cl)cc2)c(Cl)cc1NC(=O)c1cc(I)cc(I)c1O (stereo not given)	AC50	[1]	5.01 µM [falling, full curve, poor fit]
Cc1ccc(Nc2nccc(N(C)c3ccc4c(C)n(C)nc4c3)n2)cc1S(N)(=O)=O	z-score	[6]; [11]	0.758
same	z-score	[6]; [12]	0.321
NC1(c2ccc(-c3nc4ccn5c(=O)[nH]nc5c4cc3-c3ccccc3)cc2)CCC1	AC50	[1]	12.6 µM [falling, single point]
same	IC50	[2]	27.1 µM [falling, single point]
same	AC50	[5]; measured here: PEO4 viability	17.4 µM [falling, partial curve]
same	AC50	[6]; [15]	16.6 µM [falling, partial curve]
CN(C)CCOC1=Cc2ccccc2Sc2ccc(Cl)cc21	AC50	[1]	31.6 µM [falling, single point]
CN1CCCN(C(c2ccccc2)c2ccc(Cl)cc2)CC1 (stereo not given)	AC50	[1]	10 µM [falling, partial curve, poor fit]
NC(=O)NS(=O)(=O)c1ccc(Cl)cc1	AC50	[1]	35.5 µM [rising, single point]
CCCCc1oc2ccc(NS(C)(=O)=O)cc2c1C(=O)c1ccc(OCCCN(CCCC)CCCC)cc1	AC50	[1]	1.41 µM [falling, full curve, poor fit]
same	AC50	[5]; [10]	12.3 µM [falling, partial curve]
same	AC50	[6]; [13]	11.8 µM [falling, partial curve]
same	AC50	[6]; [15]	33.2 µM [falling, single point]
CN(C)CCCN1c2ccccc2Sc2ccccc21	AC50	[8]; measured here: CBG/CBR ratio read-out	20.6 µM [falling, single point]
same	AC50	[9]	0.728 µM [falling, full curve, poor fit]
